Patent US20070184126A1, “Water-soluble bound matter of proanthocyandin and composition containing the same” (TOYO SHINYAKU CO., LTD., priority 2004, published 2007)

Test: Conjugate formation determined by silica gel TLC against standards
Assay type: physicochemical
Parameters: key: + indicates that the spot was detected at the same position as the standard.; − indicates that the spot was not detected at the same position as the standard

NCC(=O)O [Comparative Example 3, glycine]
−: Standard Catechin (TLC spot) (spot at position of catechin standard (Rf value: 0.8), 10 μL sample) | Standard Dimer (TLC spot) (spot at position of proanthocyanidin B-2 (Rf value: 0.6)) | Standard Trimer (TLC spot) (spot at position of proanthocyanidin C-1 (Rf value: 0.4))
